The nature of data set [1]: general procedure: Fmoc solid-phase peptide synthesis; Fmoc-Lys(Boc)-Wang resin; 2-chlorotrityl chloride resin; HOBt/PyBOP/DIEA; HOBt/DIC. To be noted: for conjugation yield: conjugation step; for isolated mass / isolated yield: whole synthesis.
The subject of a further data set is C6-glioma xenografts. Kind of data set: In vivo MRI of C6 glioma xenografts with contrast agent. Conditions: 15 μmol/kg, about 10 min after injection. Details: species or system CD1 nude male mice.

Consider (GRGDSP)4K, for which, in data set [1], the conjugation yield worked out at 41%.
Same read-out and setting: next, “Palladium 3^1-oxo-15- methoxycarbonylmethyl- Rhodobacteriochlorin 13^1-(2- sulfoethyl)amide-17^3-(RGD- 4C)amide potassium salt”: 18%.
Take “3^1-oxo-15-methoxycarbonylmethyl-Rhodobacteriochlorin 13^1-(3-DTPA-amido-N-propyl)amide-17^3-(cycloRGDfK)amide”: in data set [1] (scale 0.1 mmol), the isolated mass stood at 61 mg and the isolated yield is 37%.
As to “3^1-oxo-15- methoxycarbonylmethyl- Rhodobacteriochlorin 13^1-(2- sulfoethyl)amide-17^3- (cycloRGDfK)amide potassium salt”, in data set [1], the conjugation yield is 52%.
Same read-out and setting: next, “Palladium 3^1-oxo-15- methoxycarbonylmethyl- Rhodobacteriochlorin 13^1-(2- sulfoethyl)amide-17^3- (cycloRGDfK)amide potassium salt”: 23%.
With “Manganese(III) 13^2-OH-Bacteriopheophorbide a [Compound 9]”, the tumor/normal relaxivity ratio in the data set on C6-glioma xenografts is given as roughly 1.4.
On to “Palladium 3^1-oxo-15- methoxycarbonylmethyl- Rhodobacteriochlorin-13^1-(2,3- dihydroxypropyl)amide-17^3- (cycloRGDfK)amide”, for which, in data set [1], the conjugation yield is 50%.
For the substance “Copper(II) 3^1-oxo-15- methoxycarbonylmethyl- Rhodobacteriochlorin 13^1-(2- sulfoethyl)amide-17^3- (cycloRGDfK)amide potassium salt”, the step yield in data set [1] (late stage modification step) is given as 86%.
As to “3^1-oxo-15- methoxycarbonylmethyl- Rhodobacteriochlorin 13^1-(2- sulfoethyl)amide-17^3- (GRGDSP)amide potassium salt”, in data set [1] (scale 0.35 mmol), the isolated mass is listed as 264 mg and the isolated yield amounted to 58%.

(Values after patent publication US10689415B2 (YEDA RESEARCH AND DEVELOPMENT COMPANY LTD., priority 2006, dated 2020).)
